Like-named read-outs stand apart in the source and are kept apart here. No constants are given. Whether binding was seen depends on the method and setting. Binding seen in cells or lysates may run through a third protein. A yes stands for co-enrichment or nearness to the bait. Other partners may have been found. Where a sequence is shown, tags or fusion partners need not be part of it.
T1: HSA32-HA-TurboID (Arabidopsis thaliana) (UniProt Q8GWL1)
T1 sequence: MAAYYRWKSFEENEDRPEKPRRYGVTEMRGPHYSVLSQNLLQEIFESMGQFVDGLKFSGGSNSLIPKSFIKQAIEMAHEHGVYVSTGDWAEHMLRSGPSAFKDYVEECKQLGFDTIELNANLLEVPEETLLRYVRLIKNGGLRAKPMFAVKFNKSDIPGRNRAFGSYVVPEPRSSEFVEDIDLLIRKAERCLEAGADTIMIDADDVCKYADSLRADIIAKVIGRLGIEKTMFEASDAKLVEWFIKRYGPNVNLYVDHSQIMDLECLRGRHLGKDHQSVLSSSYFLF

By UniProt entry, the sequences of proteins in these tests, tags left out. Where a name states a change or a piece, a line headed by the entry shows the natural chain unless it says otherwise.
UniProt P29513: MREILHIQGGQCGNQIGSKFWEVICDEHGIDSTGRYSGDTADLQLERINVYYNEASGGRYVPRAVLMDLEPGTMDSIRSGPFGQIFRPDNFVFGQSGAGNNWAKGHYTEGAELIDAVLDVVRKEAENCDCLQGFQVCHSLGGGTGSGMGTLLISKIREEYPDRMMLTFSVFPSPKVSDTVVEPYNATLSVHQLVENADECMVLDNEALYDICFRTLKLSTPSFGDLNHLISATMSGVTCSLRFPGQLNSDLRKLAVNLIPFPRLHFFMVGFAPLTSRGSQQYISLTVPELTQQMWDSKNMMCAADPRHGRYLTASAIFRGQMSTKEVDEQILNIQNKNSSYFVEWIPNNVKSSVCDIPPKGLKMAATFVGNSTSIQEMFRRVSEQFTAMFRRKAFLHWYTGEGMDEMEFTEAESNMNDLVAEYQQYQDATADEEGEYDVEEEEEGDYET
UniProt P29511: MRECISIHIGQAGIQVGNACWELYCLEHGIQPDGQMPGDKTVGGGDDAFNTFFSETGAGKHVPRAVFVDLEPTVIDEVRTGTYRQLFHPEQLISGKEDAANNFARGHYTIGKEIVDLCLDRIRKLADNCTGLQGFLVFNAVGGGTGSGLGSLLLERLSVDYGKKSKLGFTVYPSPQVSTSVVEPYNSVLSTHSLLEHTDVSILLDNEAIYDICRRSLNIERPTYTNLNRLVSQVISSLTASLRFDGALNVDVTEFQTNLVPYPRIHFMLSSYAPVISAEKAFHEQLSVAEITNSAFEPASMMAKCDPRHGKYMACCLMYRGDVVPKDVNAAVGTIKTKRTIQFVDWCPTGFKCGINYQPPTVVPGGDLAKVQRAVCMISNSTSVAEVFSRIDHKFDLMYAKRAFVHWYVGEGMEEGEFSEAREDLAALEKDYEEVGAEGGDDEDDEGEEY
UniProt Q9M888: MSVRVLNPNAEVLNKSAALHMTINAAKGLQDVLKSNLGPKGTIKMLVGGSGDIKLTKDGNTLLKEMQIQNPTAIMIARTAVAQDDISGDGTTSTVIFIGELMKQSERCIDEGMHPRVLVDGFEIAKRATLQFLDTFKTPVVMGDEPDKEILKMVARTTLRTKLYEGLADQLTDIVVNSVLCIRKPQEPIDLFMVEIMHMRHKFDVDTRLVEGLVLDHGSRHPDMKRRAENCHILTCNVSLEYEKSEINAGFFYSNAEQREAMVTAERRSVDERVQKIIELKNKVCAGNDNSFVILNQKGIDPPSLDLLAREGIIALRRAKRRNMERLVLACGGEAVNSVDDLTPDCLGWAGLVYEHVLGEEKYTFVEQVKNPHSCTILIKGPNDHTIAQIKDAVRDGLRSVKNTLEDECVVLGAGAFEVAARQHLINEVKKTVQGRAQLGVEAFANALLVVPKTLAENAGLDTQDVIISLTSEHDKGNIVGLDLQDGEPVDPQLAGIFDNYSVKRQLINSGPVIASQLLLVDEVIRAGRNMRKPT
UniProt Q56WH1: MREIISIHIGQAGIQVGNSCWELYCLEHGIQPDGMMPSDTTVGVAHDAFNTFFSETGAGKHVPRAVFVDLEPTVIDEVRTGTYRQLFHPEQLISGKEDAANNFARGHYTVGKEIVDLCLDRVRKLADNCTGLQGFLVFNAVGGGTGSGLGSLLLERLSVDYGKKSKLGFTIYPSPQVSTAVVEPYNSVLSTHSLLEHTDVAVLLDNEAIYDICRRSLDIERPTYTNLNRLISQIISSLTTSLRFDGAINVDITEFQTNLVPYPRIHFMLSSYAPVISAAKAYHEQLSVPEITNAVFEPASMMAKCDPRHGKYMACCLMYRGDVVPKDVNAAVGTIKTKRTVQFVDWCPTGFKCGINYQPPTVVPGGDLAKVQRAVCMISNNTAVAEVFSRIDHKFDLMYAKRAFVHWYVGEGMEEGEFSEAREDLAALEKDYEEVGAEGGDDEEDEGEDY


What was measured:
[1] = molecular target: T1, HSA32-HA-TurboID (Arabidopsis thaliana); assay: proximity labelling
[2] = molecular target: T1, HSA32-HA-TurboID (Arabidopsis thaliana); assay: proximity labelling; remark: listed apart in the source

Row | binding [1] | binding [2] | Molecule
1 | binds |  | TUBB5 (from UniProt P29513 1-449)
2 | binds |  | LEA25 (from UniProt Q9SIN3)
3 | binds |  | IPA1
4 | binds |  | TUBA6 (from UniProt P29511 1-450)
5 | binds | binds | P23-1 (protein, UniProt Q8L7U4 1-241) MSRHPEVKWAETTEKIFLTVVLADTKDTKVNLDPEGVFDFSAKVGPENHVYELKLELADKVNVEESKINIGERSIFCIIEKAEPERWNKLLRVKKPPHYVKVDWDKWVDEDDEGSAGAADMDMAGMEGMGGMGGMGGMGGMGGMGGMGGMGGMEGMDFSKLMGGMGGMGGMGGLEGLGGMGGMGGMGGMGGMGGMEEFEDSDDEEETAKSGDKKDDAVKEEGLATEKAPAAEETTSVKEDK

Continued, molecule first:

Row | Molecule | binding [1] | binding [2]
6 | CCT6A/B (from UniProt Q9M888) | binds | 
7 | TUBA3 (from UniProt Q56WH1 1-450) | binds | 
8 | CCT2 (protein, UniProt Q940P8 1-527) MPIDKIFKDDASEEKGERARMASFVGAMAISDLVKSTLGPKGMDKILQSTGRGHAVTVTNDGATILKSLHIDNPAAKVLVDISKVQDDEVGDGTTSVVVLAGELLREAEKLVASKIHPMTIIAGYRMASECARNALLKRVIDNKDNAEKFRSDLLKIAMTTLCSKILSQDKEHFAEMAVDAVFRLKGSTNLEAIQIIKKPGGSLKDSFLDEGFILDKKIGIGQPKRIENANILVANTAMDTDKVKIYGARVRVDSMTKVAEIEGAEKEKMKDKVKKIIGHGINCFVNRQLIYNFPEELFADAGILAIEHADFEGIERLGLVTGGEIASTFDNPESVKLGHCKLIEEIMIGEDKLIHFSGCEMGQACSIVLRGASHHVLDEAERSLHDALCVLSQTVNDTRVLLGGGWPEMVMAKEVDELARKTAGKKSHAIEAFSRALVAIPTTIADNAGLDSAELVAQLRAEHHTEGCNAGIDVITGAVGDMEERGIYEAFKVKQAVLLSATEASEMILRVDEIITCAPRRREDRM | binds | binds
9 | AtJ3 (protein, UniProt Q94AW8 1-420) MFGRGPSKKSDNTKFYEILGVPKSASPEDLKKAYKKAAIKNHPDKGGDPEKFKELAQAYEVLSDPEKREIYDQYGEDALKEGMGGGGGGHDPFDIFSSFFGGGPFGGNTSRQRRQRRGEDVVHPLKVSLEDVYLGTMKKLSLSRNALCSKCNGKGSKSGASLKCGGCQGSGMKVSIRQLGPGMIQQMQHACNECKGTGETINDRDRCPQCKGDKVIPEKKVLEVNVEKGMQHSQKITFEGQADEAPDTVTGDIVFVLQQKEHPKFKRKGEDLFVEHTLSLTEALCGFQFVLTHLDGRSLLIKSNPGEVVKPDSYKAISDEGMPIYQRPFMKGKLYIHFTVEFPDSLSPDQTKALEAVLPKPSTAQLSDMEIDECEETTLHDVNIEDEMRRKAQAQREAYDDDDEDDDHPGGAQRVQCAQQ | binds | binds
10 | CCT8 (protein, UniProt Q94K05 1-549) MVGMSMQPYGIQSMLKEGYRHLSGLDEAVIKNIEACKELSTITRTSLGPNGMNKMVINHLDKLFVTNDAATIVNELEIQHPAAKLLVLAAKAQQEEIGDGANLTISFAGELLQNAEELIRMGLHPSEIISGYTKAVSKAVEILEQLVETGSETMDVRNKDEVISRMRAAVASKQFGQEEIICSLVTDACIQVCPKNPTNFNVDNVRVSKLLGGGLHNSCIVRGMVLKSDAVGSIKRMEKAKVAVFAGGVDTTATETKGTVLIHSAEQLENYAKTEEAKVEELIKAVAESGAKVIVSGGSIGEMALHFCERYKIMVLKISSKFELRRFCRTAGAVAHLKLSRPSPEDLGYVDSISVEEIGGVTVTIARNEEGGNSISTVVLRGSTDSILDDLERAVDDGVNTYKAMCRDSRIVPGAAATEIELAQRLKEYANAEIGLDKYAITKYAESFEFVPKTLADNAGLNAMEIIAALYTGHGSGNTKLGIDLEEGACKDVSETKVWDLFATKLFALKYASDAACTVLRVDQIIMAKPAGGPRRDAAQAAGAGAEED | binds | binds
11 | BT4 (protein, UniProt Q9FJX5 1-372) MVTGCVDLHQSFKSADSSSVPIPPPLPSKSDGLKKKLGHSSVSTATRDMWDRLFNDGYKADVVIYTDNGSIIYAHANILGTASTVIKGMLKQAKRHGKWHTISIRGVPHDAVRVFIRFLYSSCYEKEEMNEFIMHLLLLSHAYVVPQLKRVCEWHLEHGLLTTENVVDVFQLALLCDFPRLSLISHRMIMKHFNELSATEAWTAMKKSHPFLEKEVRDSVIIEANTRKERMRKRNDQRIYSQLYEAMEALVHICRDGCKTIGPHDKDFKPNHATCNYEACKGLESLIRHFAGCKLRVPGGCVHCKRMWQLLELHSRVCAGSDQCRVPLCRNLKEKMEKQSKKDESRWKLLVKNVLGSKKIGGSPFFLPVTNC | binds | 

— doi:10.1101/2024.10.15.618377
